Data from the supplement of paper PMC10338343.
± gives the standard deviation. The list shows a part of the results, in another mix than the full data. The uncertainty is large for many entries.

Experiments:
Assay in all cases: pre-steady-state target cleavage rate (min^-1); MIWI and MILI are mouse PIWI proteins and EfPiwi is from a freshwater sponge; tags in brackets are library labels; higher = faster piRNA-guided slicing of the target
[1] = system: MILI (PIWIL2) piRISC loaded with L1MC piRNA (26 nt); settings: guide: L1MC piRNA 5'p-UAACUAAAUACUAUGCAAGCUGUAGG
Summary of the method: (§1)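 Cleave-'n-Seq used a transcribed, DNA-blocked target RNA library at 0.1 nM and active affinity-purified piRISC with one synthetic guide at 1 nM, with or without 500 nM GTSF1 partner protein, in HEPES–potassium acetate buffer at 33 °C for 0–8 or 0–960 min. Uncleaved targets were sequenced and normalised to depth and to weakly complementary targets, and three trials were pooled with k3 capped at 0.0001 min^-1. The pre-steady-state cleavage rate was estimated by a burst-and-steady-state fit.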

[2] = system: MIWI (PIWIL1) piRISC loaded with L1MC piRNA (30 nt); settings: guide: L1MC piRNA 5'p-UAACUAAAUACUAUGCAAGCUGUAGGUCCU
Summary of the method: as §1

[3] = system: MILI (PIWIL2) piRISC loaded with piRNA #1 (26 nt); settings: guide: piRNA #1 5'p-UGAGGUAGUAGGUUGUAUAGUAUCCA; auxiliary factor: 500 nM mouse GTSF1
Summary of the method: as §1

[4] = auxiliary factor: none (no GTSF1)
[5] = auxiliary factor: 500 nM mouse GTSF1

UCCUGGAUGUCGAACCAUAGUUAUUAGUUA
pre-steady-state target cleavage rate [1, 4]: 0.000404 ± 0.011
pre-steady-state target cleavage rate [2, 5]: 0.000333 ± 0.014
pre-steady-state target cleavage rate [2, 4]: 0.000426 ± 0.01

GGAGACCUAACUAUACAAACCUACUACCUCA
pre-steady-state target cleavage rate [3]: 0.000763 ± 0.015

GGAGACCAUACUAUACAACCUACUAGGUCA
pre-steady-state target cleavage rate [3]: 0.00208 ± 0.0046

GGAGACCUUACUAAAGAACCUACUACCUCA
pre-steady-state target cleavage rate [3]: 0.105 ± 0.011

GGAGAGGAUACUAUACAACCUUGUACCUCA
pre-steady-state target cleavage rate [3]: 0.000938 ± 0.004

GGAGACCUAUGAUAUCAAGCAACUACCUCA
pre-steady-state target cleavage rate [3]: 0.000299 ± 0.0095

UCCUGGAUGUCGUUGCAUAGUUAUUAGUUA
pre-steady-state target cleavage rate [1, 5]: 0.00343 ± 0.0046
pre-steady-state target cleavage rate [2, 5]: 0.000504 ± 0.021
pre-steady-state target cleavage rate [2, 4]: 0.00114 ± 0.0079

GGAGACCUAUGAUAUGUACCAACUACCUGA
pre-steady-state target cleavage rate [3]: 0.000117 ± 0.014

GGAGACCUAUGAAUACAACCAUGAUGGAGA [g11:g18:cont:t1A]
pre-steady-state target cleavage rate [3]: 0.000492 ± 0.01

GGAGACCUAUGAUAUGUACCUACUACACUCA
pre-steady-state target cleavage rate [3]: 0.000152 ± 0.013

UCCUGGAUGUCGAACCAUAGUAUUUAGUUU [g2:g15:cont:t1U]
pre-steady-state target cleavage rate [1, 4]: 0.000881 ± 0.0049
pre-steady-state target cleavage rate [2, 5]: 0.000249 ± 0.017
pre-steady-state target cleavage rate [2, 4]: 0.00105 ± 0.0053

UCCUGGAUCAGCUUGCAUACAUUUUAGAAA
pre-steady-state target cleavage rate [1, 5]: 0.00125 ± 0.0083
pre-steady-state target cleavage rate [2, 5]: 0.00127 ± 0.0098
pre-steady-state target cleavage rate [2, 4]: 0.000304 ± 0.0089

UCCUGGAUGUGCUACCAUAGUAUUUAGUAA
pre-steady-state target cleavage rate [1, 4]: 0.000798 ± 0.0079
pre-steady-state target cleavage rate [2, 5]: 0.000992 ± 0.011
pre-steady-state target cleavage rate [2, 4]: 0.000609 ± 0.0084

GGAGACGAUACUAUACAACCUACUACCCUCA
pre-steady-state target cleavage rate [3]: 0.176 ± 0.021

UCCUGGAUGUCGAACCAUAGUAUUAUAGUUA
pre-steady-state target cleavage rate [1, 4]: 0.000265 ± 0.02
pre-steady-state target cleavage rate [2, 5]: 0.000296 ± 0.017
pre-steady-state target cleavage rate [2, 4]: 0.000111 ± 0.023

GGAGACCUAUGAUAUGAACCUACCUACCUCA
pre-steady-state target cleavage rate [3]: < 0.0001

GGAGACCUAUCUAUAGAUCCUACUACCUCA
pre-steady-state target cleavage rate [3]: 0.144 ± 0.017

GGAGUGGAUACUAUUGUACCUACUACCUCA
pre-steady-state target cleavage rate [3]: 0.115 ± 0.0083

UCCUGGAUGUCGUUCCAUAGUUUUUAGUUA
pre-steady-state target cleavage rate [1, 4]: 0.000419 ± 0.014
pre-steady-state target cleavage rate [2, 5]: 0.00227 ± 0.0059
pre-steady-state target cleavage rate [2, 4]: 0.00045 ± 0.015

UCCUGGAACAGCUUGCAAAGUAUUUUCAAA
pre-steady-state target cleavage rate [1, 4]: 0.000827 ± 0.0067
pre-steady-state target cleavage rate [2, 5]: 0.0876 ± 0.018
pre-steady-state target cleavage rate [2, 4]: 0.00328 ± 0.002

GGAGACGAUACUAUUCUACCUACUACCUCA
pre-steady-state target cleavage rate [3]: 0.173 ± 0.012

UCCUGGAUGUCGAACCAUAGUUUUUUGUUA
pre-steady-state target cleavage rate [1, 4]: 0.000204 ± 0.018
pre-steady-state target cleavage rate [2, 5]: 0.000187 ± 0.028
pre-steady-state target cleavage rate [2, 4]: 0.000191 ± 0.021

GGAGACCUUACUUAUCAACCUACUACCUCA
pre-steady-state target cleavage rate [3]: 0.0518 ± 0.014

GGAGACCUAUGAUAUGAACCUACUAACCUCA
pre-steady-state target cleavage rate [3]: 0.000101 ± 0.021

GGAGACGAUACUAAACAACCUACUACCUGA
pre-steady-state target cleavage rate [3]: 0.124 ± 0.02

GGAGACCUAUGAUAUGAACCUAACUACCUCA
pre-steady-state target cleavage rate [3]: 0.000169 ± 0.018

GGAGACCUAUGAUUACAACCUACAUGGAGA [g8:g17:cont:t1A]
pre-steady-state target cleavage rate [3]: 0.000271 ± 0.019

GGAGUGGAUACUAUACAACCUACUACCUGCA
pre-steady-state target cleavage rate [3]: 0.109 ± 0.012

UCCUGGAUGUCGAAACAUAGUAUUUAGUUA
pre-steady-state target cleavage rate [1, 4]: 0.00147 ± 0.0051
pre-steady-state target cleavage rate [2, 5]: 0.0036 ± 0.0041
pre-steady-state target cleavage rate [2, 4]: 0.00062 ± 0.013

GGAGUGGAUACUAUACAACCUACUACGACA
pre-steady-state target cleavage rate [3]: 0.0497 ± 0.008

UCCUGGAUGUCGAACGUUAUGUAUUUAGUUA
pre-steady-state target cleavage rate [1, 4]: 0.000184 ± 0.026
pre-steady-state target cleavage rate [2, 5]: 0.000244 ± 0.024
pre-steady-state target cleavage rate [2, 4]: 0.000288 ± 0.023
